PubChem BioAssay AID1259424 | University of Nebraska Medical Center, 2018
Purpose: 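Find knockdowns that reproduce the expression shifts seen after KSR1 loss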 (primary screen). Cells: human HCT116 colon cancer cells. Reagent: siRNA pool against human genes, 50 nM. Detection: 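Log2 levels of six mRNAs (branched-DNA multiplex), adjusted by two reference genes and the non-targeting median, then scored against the average KSR1 knockdown pattern as Pearson r and euclidean distance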. Scale: mean correlation with KSR1 profile and KSR1 correlation: higher = expression change more like KSR1 knockdown; mean distance from KSR1 profile: higher = expression change less like KSR1 knockdown.
Here is one part, drawn at random, of about 14,000 reagents tested. 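Higher correlation or smaller distance means closer resemblance to KSR1 loss; control wells, including KSR1 knockdowns, recur on many plates.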 Reagents against one gene are numbered here. The record does not give: the time to read-out.

no.	gene	reagent	mean correlation with KSR1 profile	mean distance from KSR1 profile	KSR1 correlation, replicate 1	KSR1 correlation, replicate 2	KSR1 correlation, replicate 3
1	OVOL2	1	0.0102	1.18	-0.334	0.316	0.182
2	RAB3B	1	-0.462	1.56	-0.482	-0.447	-0.0304
3	DENND4A	1	-0.0328	2.16	-0.0411	-0.0488	0.00929
4	SLC10A1	1	-0.713	2.87	-0.824	-0.674	-0.429
5	KCNJ12	1	-0.596	2.42	-0.697	-0.57	-0.333
6	HTR2B	1	-0.232	1.34	-0.365	-0.137	-0.401
7	SYP	1	0.794	1.45	0.962	0.389	0.779
8	ME1	1	0.554	1.52	0.471	0.559	0.577
9	PSMC3	1	-0.000886	5.66	0.204	0.095	-0.634
10	PDCD11	1	0.416	2.75	0.32	0.282	0.696
11	CDR2	1	-0.619	3.99	-0.571	-0.601	-0.524
12	CHRNB2	1	-0.657	3.8	-0.521	-0.768	-0.727
13	PPM1J	1	0.16	2.55	-0.143	0.167	0.426
14	PYGO1	1	-0.602	2.55	-0.479	-0.675	-0.536
15	KISS1R	1	0.797	0.979	0.75	0.938	0.536
16	RPL6	1	0.234	4	0.0117	-0.0237	0.79
17	OPN1LW	1	0.351	3.41	0.509	0.427	0.356
18	SLC35A3	1	-0.0702	1.19	0.0384	-0.38	-0.00695
19	CLSTN1	1	-0.551	2.78	-0.586	-0.673	-0.567
20	MRPS12	1	-0.352	1.86	-0.312	-0.45	-0.107
21	LSM7	1	-0.225	2.79	0.0909	-0.421	-0.249
22	HDGFL2	1	0.596	2.79	0.594	0.657	0.3
23	GPX1	1	-0.691	1.41	-0.807	-0.864	-0.71
24	CDC14B	1	0.365	1.41	0.424	0.201	0.221
25	APBB3	1	-0.305	2.36	0.3	-0.576	-0.128
26	IRAK1	1	0.277	1.88	0.493	0.312	0.0618
27	SERPINC1	1	0.427	1.74	0.574	0.504	0.258
28	TAP2	1	0.458	1.36	0.176	0.321	0.757
29	IGFBP3	1	-0.176	2.29	-0.232	-0.189	0.121
30	SLC17A1	1	0.0861	1.21	-0.0848	0.216	0.377
31	RYR1	1	0.0335	3.13	0.127	-0.248	0.133
32	CAAP1	1	0.679	2.31	0.657	0.774	0.621
33	EIF4G1	1	-0.377	3.32	-0.391	-0.382	-0.605
34	TARDBP	1	0.169	1.58	0.521	0.626	-0.0757
35	SRSF1	1	0.103	3.92	0.135	0.0247	-0.0314
36	RBM45	1	-0.675	2.97	-0.674	-0.709	-0.677
37	ZSCAN18	1	0.13	2.25	0.161	-0.0904	0.099
38	OSCAR	1	-0.136	2.72	-0.182	0.000487	-0.321
39	NQO2	1	0.476	1.86	0.38	0.387	0.442
40	EZH2	1	-0.372	2.81	-0.424	-0.458	-0.322

Ordered by “KSR1 correlation, replicate 3” (descending): 3 of the entries above.
gene	reagent	mean correlation with KSR1 profile	mean distance from KSR1 profile	KSR1 correlation, replicate 1	KSR1 correlation, replicate 2	KSR1 correlation, replicate 3
HDGFL2	1	0.596	2.79	0.594	0.657	0.3
MRPS12	1	-0.352	1.86	-0.312	-0.45	-0.107
LSM7	1	-0.225	2.79	0.0909	-0.421	-0.249

More entries follow:
no.	gene	reagent	mean correlation with KSR1 profile	mean distance from KSR1 profile	KSR1 correlation, replicate 1	KSR1 correlation, replicate 2	KSR1 correlation, replicate 3
41	HTR1F	1	0.297	1.62	0.0954	0.403	0.503
42	RTL9	1	-0.332	2.39	-0.377	-0.439	-0.377
43	COX7A1	1	0.0703	1.76	0.125	0.164	-0.141
44	CLCF1	1	0.0428	1.73	0.168	-0.109	-0.0435
45	SRPX2	1	0.619	1.13	0.42	0.617	0.42
46	HSD17B10	1	-0.343	2.83	-0.463	-0.472	-0.216
47	CARD18	1	-0.00373	1.78	-0.168	0.235	0.0297
48	GABBR2	1	0.853	1.25	0.776	0.92	0.8
49	SEC63	1	-0.377	2.01	-0.122	-0.535	-0.328
50	CORO1B	1	-0.801	5.52	-0.669	-0.867	-0.866
51	RNFT2	1	0.392	2.55	0.352	0.209	0.457
52	FHIP2A	1	-0.143	1.12	-0.298	0.253	-0.377
53	PCBP1	1	-0.551	2.21	-0.387	-0.232	-0.711
54	KRT6A	1	-0.0533	1.68	0.0234	-0.191	-0.151
55	KRT6A	2	-0.0999	1.97	-0.181	-0.279	0.0811
56	DKC1	1	-0.475	2.82	-0.423	-0.68	-0.616
57	ACSS1	1	0.0491	2.78	0.105	0.268	-0.118
58	AKR1C4	1	0.15	3.38	-0.083	0.265	0.367
59	LIG1	1	-0.00368	1.36	0.193	0.116	-0.635
60	FGF23	1	0.603	1.93	0.557	0.527	0.691
61	PCDHB8	1	-0.345	2.92	-0.15	-0.542	-0.496
62	C5AR1	1	0.245	2.56	0.308	0.341	0.0558
63	PLEKHA1	1	0.797	0.84	0.775	0.88	0.627
